From publication PMC9590400 come the findings set out here.

Results are given in words; binding and its absence hold for the method and conditions named. In cells and extracts the contact can be indirect.

The target of this test is T1, Coiled-coil alpha-helical rod protein 1 (HCR), endogenous in HeLa (human (endogenous in HeLa)) (UniProt Q8TD31).
T1 sequence: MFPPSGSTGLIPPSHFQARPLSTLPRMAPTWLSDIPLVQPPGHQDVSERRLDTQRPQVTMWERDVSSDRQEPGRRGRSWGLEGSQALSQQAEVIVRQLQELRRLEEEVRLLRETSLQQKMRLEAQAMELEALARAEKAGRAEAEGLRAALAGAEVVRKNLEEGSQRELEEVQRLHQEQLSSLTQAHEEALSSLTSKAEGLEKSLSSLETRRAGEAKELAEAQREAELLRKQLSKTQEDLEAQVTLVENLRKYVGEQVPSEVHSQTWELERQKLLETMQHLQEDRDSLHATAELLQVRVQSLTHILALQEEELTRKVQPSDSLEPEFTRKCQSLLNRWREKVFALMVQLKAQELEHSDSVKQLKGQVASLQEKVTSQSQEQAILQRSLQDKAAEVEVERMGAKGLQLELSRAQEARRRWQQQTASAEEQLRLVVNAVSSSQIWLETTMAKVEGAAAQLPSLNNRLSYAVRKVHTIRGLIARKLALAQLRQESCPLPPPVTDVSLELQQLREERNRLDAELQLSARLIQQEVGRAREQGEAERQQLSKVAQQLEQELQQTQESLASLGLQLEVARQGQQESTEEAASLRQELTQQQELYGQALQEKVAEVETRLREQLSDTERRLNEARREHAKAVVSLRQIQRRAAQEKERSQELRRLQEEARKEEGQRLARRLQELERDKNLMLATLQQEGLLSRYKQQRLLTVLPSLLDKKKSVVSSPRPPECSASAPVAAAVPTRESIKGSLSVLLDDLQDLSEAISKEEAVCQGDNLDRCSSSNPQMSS
Nature of the test: co-IP; endogenous proteins in HeLa cell lysates (50 mM Tris, 150 mM NaCl, 0.1% NP40); antibody to one partner or control rabbit IgG, protein A and protein G beads, 4 °C; western blot. For orientation: Immunoblotting shows a protein as a band on a membrane.

On to “dynein light chain 8 (LC8), endogenous in HeLa (human (endogenous in HeLa))”, for which the binding result was “no binding”.
